Results: patent US20260240836A1, “ENHANCER OF PHYSIOLOGICAL ACTIVITY OF HEPATOCYTE GROWTH FACTOR” (KYOWA HAKKO BIO CO., LTD., priority 2023, published 2026)

Tested on: muscle stem cells (satellite cells)
Experiment: Bright-field morphology of muscle stem cells cultured with trisulfide and HGF
Type: cell-based, rat
Conditions: trisulfide (1:8000) plus HGF 3 ng/ml

Compound | morphology of cultured cells vs control groups (NC and PC)
N[C@@H](CCC(=O)N[C@@H](CSSSC[C@H](NC(=O)CC[C@H](N)C(=O)O)C(=O)NCC(=O)O)C(=O)NCC(=O)O)C(=O)O [GSSSG, glutathione trisulfide] | did not differ
O=C(O)CCCCC1CCSSS1 (centres unmarked) [LA-SSS, lipoic acid trisulfide] | did not differ
